Literature values as cited in patent publication US20140066444A1, “Method of Treating Cancer” (Exelixis, Inc., priority 2010, published 2014).
For at least one compound, name, drawing or mass did not settle the structure.

System: CRPC
Settings: CRPC patients; cited from earlier work

Compound | decreased uptake on bone scan
C[C@]12CC[C@H](O)CC1=CC[C@@H]1[C@@H]2CC[C@]2(C)C(c3cccnc3)=CC[C@@H]12 [abiraterone] | only been reported rarely
Cc1nc(Nc2ncc(C(=O)Nc3c(C)cccc3Cl)s2)cc(N2CCN(CCO)CC2)n1 [dasatinib] | only been reported rarely
